{
  "source": "patent US20250275946A1",
  "about": "“COMBINATION THERAPY FOR THE TREATMENT OF CANCER” (UNM RAINFOREST INNOVATIONS, priority 2021, published 2025)",
  "system": "CDX2^ERT2 Apc^F/F mice",
  "assay": "Survival of CDX2ERT2 ApcF/F mice (TAM and DSS) treated with rapamycin",
  "format": "in vivo",
  "settings": "100 mg/kg TAM 3 days, 1.5% DSS 7 days, daily i.p. 10 mg/kg rapamycin, FIG. S3C",
  "note": "Entries after “also recorded” stand apart in the source; their conditions may differ. At least one compound was matched to its structure with a doubt left.",
  "data": [
    {"compound": "CO[C@H]1C[C@@H]2CC[C@@H](C)[C@@](O)(O2)C(=O)C(=O)N2CCCC[C@H]2C(=O)O[C@H]([C@H](C)C[C@@H]2CC[C@@H](O)[C@H](OC)C2)CC(=O)[C@H](C)/C=C(\\C)[C@@H](O)[C@@H](OC)C(=O)[C@H](C)C[C@H](C)/C=C/C=C/C=C/1C", "note": "[rapamycin]", "values": [
      {"measurement": "survival", "result": "did not significantly improve survival rate; also recorded: didn't prolong mouse survival"}
    ]}
  ]
}
